## Results of single-concentration screens

Protein sequences, listed by entry. Tags and fused reporters are not part of them. Residues count along the entry.
UniProt Q4DA54, 1-478: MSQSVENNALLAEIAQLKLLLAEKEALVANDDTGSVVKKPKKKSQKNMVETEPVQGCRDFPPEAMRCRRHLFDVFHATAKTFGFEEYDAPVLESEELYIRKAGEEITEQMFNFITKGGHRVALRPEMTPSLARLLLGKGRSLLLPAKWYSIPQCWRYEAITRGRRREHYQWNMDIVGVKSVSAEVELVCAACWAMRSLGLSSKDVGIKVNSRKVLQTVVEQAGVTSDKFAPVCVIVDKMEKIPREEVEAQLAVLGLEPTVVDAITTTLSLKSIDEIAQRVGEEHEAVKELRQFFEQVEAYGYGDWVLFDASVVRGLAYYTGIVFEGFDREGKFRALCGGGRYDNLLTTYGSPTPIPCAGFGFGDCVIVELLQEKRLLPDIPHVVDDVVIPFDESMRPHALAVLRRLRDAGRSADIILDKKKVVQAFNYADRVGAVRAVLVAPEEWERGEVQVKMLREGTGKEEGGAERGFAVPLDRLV
UniProt P9WNZ1, whole entry: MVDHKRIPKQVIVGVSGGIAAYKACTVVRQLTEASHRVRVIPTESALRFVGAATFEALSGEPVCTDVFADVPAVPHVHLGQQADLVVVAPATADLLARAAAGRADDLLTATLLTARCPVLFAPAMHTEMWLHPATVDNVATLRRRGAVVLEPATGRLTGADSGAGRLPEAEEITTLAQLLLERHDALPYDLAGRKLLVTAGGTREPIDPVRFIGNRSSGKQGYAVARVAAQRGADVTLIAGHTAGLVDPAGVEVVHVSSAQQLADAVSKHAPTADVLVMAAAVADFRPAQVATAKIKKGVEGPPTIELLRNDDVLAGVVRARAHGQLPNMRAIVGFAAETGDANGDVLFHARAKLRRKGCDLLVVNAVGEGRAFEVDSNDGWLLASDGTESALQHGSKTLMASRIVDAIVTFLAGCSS
UniProt A4I591, 1-473: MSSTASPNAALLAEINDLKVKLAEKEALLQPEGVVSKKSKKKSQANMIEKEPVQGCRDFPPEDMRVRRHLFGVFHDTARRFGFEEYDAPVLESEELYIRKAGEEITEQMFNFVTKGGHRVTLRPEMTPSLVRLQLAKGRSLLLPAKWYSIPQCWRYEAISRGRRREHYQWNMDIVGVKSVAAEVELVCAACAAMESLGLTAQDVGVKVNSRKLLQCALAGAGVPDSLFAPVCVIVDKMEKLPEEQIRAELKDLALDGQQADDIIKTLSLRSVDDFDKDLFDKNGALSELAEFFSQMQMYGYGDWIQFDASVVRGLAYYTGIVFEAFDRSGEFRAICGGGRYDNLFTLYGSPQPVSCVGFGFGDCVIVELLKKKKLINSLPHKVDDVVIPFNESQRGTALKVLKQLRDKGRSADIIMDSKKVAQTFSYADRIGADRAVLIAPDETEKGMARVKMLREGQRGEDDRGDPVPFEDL

Source: ChEMBL document CHEMBL3988442, “University of Dundee, Small-Polar-MMV Screening Library” (2021).

Results are given as percent effect. The controls that fix the scale are not given in the record; negative values are as filed. This is an unselected part of the compounds tested.

A: 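Histidine-tRNA ligase, Trypanosoma cruzi CL Brener (UniProt Q4DA54). Enzyme assay of histidyl-tRNA synthetase; the read-out is not stated. Concentration: 30 µM. Higher reads as stronger inhibition (inferred: compounds with an IC50 in retests scored well above the rest). About 69,000 compounds were tested under these conditions; 0.045% (about 31) showed 50% or more at least once.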
B: 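Coenzyme A biosynthesis protein CoaBC, Mycobacterium tuberculosis (UniProt P9WNZ1). Enzyme assay of CoaBC with a phosphate dye (Biomol Green) read at 650 nm. Tested at 30 µM. Higher reads as stronger inhibition, judged from the few compounds that gave an IC50. Most strong results did not repeat in a second test. Of about 67,000 compounds tested this way, about 40 (0.06%) reached 50% or more in at least one test.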
C: 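Enzyme assay of histidyl-tRNA synthetase; the read-out is not stated. Target: Histidine-tRNA ligase, Leishmania infantum (UniProt A4I591). Tested at 30 µM. The record gives no direction; compounds that gave an IC50 in retests scored well above the rest, so higher reads as stronger inhibition. The assay is labelled LdHisRS but filed under L. infantum. About 69,000 compounds were tested under these conditions; 0.6% (about 410) showed 50% or more at least once.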

* COc1cc(C2CC(=O)Nc3c2c(=O)[nH]n3C2CCCC2)ccc1O (configuration not stated) | A: -5.155%; B: -0.7075%; C: 9.89%
* Cc1ccc(C(=O)N2C[C@H](N3CCOCC3)[C@@H]3OCCC[C@@H]32)cn1 | A: 7.538%; B: 4.579%; C: 7.921%
* Cn1nccc1NC(=O)CN1CCc2sccc2C1 | A: 4.327%; B: 0.6361%; C: 17.07%
* CC(=O)N1CCN(Cc2coc(-c3cccc(F)c3)n2)CC1 | A: -7.471%; B: 7.097%; C: 13.91%
* COCCn1nc(C(=O)N(C)Cc2cnn(C)c2)ccc1=O | A: -2.174%; B: 7.962%; C: 25.71%
* Cn1nccc1CCC(=O)NC1CCCN(c2ccccn2)C1 (configuration not stated) | A: 5.303%; B: 0.5256%; C: 5.797%
* CC(C)(C)n1cc(C2=CCN(CCNC(=O)c3ccccc3)CC2)cn1 | A: 2.116%; B: -2.564%; C: 9.091%
* CCOc1ccc(NC(=O)C2OC(c3cccs3)=NN2C(C)=O)cc1 (configuration not stated) | A: 3.409%; B: -1.699%; C: -3.96%
* Cc1ccc(-c2noc(CN3CC(n4cc(C)cn4)C3)n2)cc1 | A: 8.046%; B: -4%; C: 22.61%
* O=C(CCOc1ccccc1)N1CCC(Nc2cccnn2)CC1 | A: 3.788%; B: 6.511%; C: 16.67%
* Cc1cc(OCCC(=O)Nc2cccc(F)c2)nnc1C | A: 10%; B: 7.025%; C: 20.54%
* CN1CC(=O)N(c2cccnc2)CC12CCN(C(=O)c1cccnc1)C2 (configuration not stated) | A: 1.622%; B: 2.665%; C: 13.21%
* COCC(c1ccccn1)N(C)C(=O)c1cc(-c2ccc(O)cc2)n[nH]1 (configuration not stated) | A: -4.972%; B: 7.78%; C: 23.94%
* Cc1ncc(CN(C)CCO)c2cc(C(=O)c3ccc(Br)cc3)oc12 | A: 17%; B: 3.39%; C: 26.09%
* COc1cc(C(N)=O)c(N(C)S(C)(=O)=O)cc1OC | A: 0%; B: 0.6211%; C: 5.833%
* Cc1nc2cc(=O)[nH]n2c(C)c1CC(=O)NCCCc1ccccc1 | A: 9.412%; B: 2.558%; C: 14.68%
* CC(C)(C(=O)NCc1ccccc1F)n1cc(Br)cn1 | A: 8.621%; B: 3.733%; C: 9.649%
* Cc1cnc(N2C[C@@H]3CN(Cc4ccco4)CCC[C@]3(C(=O)O)C2)nc1 | A: 5.473%; B: 1.29%; C: 19.44%
* COc1c(CNC(c2cccc(F)c2)c2nccn2C)c(C)nn1C (configuration not stated) | A: 3.55%; B: 2.662%; C: 0%
* CC(C)c1csc(C2CCCN(C(=O)c3ncccn3)C2)n1 (configuration not stated) | A: 1.695%; B: -5.727%; C: -7.547%
* CC(O)c1cn(CC2CCN(C(=O)c3cscn3)CC2)nn1 (configuration not stated) | A: 2.899%; B: -0.3727%; C: 25.83%
* COCC(=O)Nc1ccc(-c2noc([C@@H]3CCCN3)n2)cn1 | A: 4.95%; B: 6.998%; C: 16.67%
* CC(C)C1CN(c2ncccc2Cl)CCC(=O)N1Cc1ccc(F)cc1 (configuration not stated) | A: 3.96%; B: 6.036%; C: 28.77%
* CN(C)CCCn1ccc(-c2cccc(-c3ccccn3)c2)n1 | A: -2.899%; B: 7.329%; C: 4.167%
* CNS(=O)(=O)CCCN1CCCC1c1noc(C)n1 (configuration not stated) | A: 6.286%; B: -0.7874%; C: 8.475%
* CCc1noc(CC)c1CC(=O)N1CCN(C(=O)C2CCCC2)CC1 | A: 0.5128%; B: 0.2484%; C: 14.29%
* Fc1cnc(N2CC[C@@H]3O[C@@H](COCc4ccccn4)CC[C@@H]32)nc1 | A: 5.747%; B: 5.499%; C: 13.16%
* CCOC(=O)CCn1cnc2onc(-c3cc(OC)ccc3Cl)c2c1=O | A: 6.098%; B: 0.7595%; C: 0%
* COc1ccc(F)c(-c2ncccc2NC(=O)C(C)C)c1 | A: -4%; B: 11.9%; C: 16.39%

The first 3 entries again:

structure	A	B	C
COc1cc(C2CC(=O)Nc3c2c(=O)[nH]n3C2CCCC2)ccc1O (configuration not stated)	-5.155%	-0.7075%	9.89%
Cc1ccc(C(=O)N2C[C@H](N3CCOCC3)[C@@H]3OCCC[C@@H]32)cn1	7.538%	4.579%	7.921%
Cn1nccc1NC(=O)CN1CCc2sccc2C1	4.327%	0.6361%	17.07%